In publication PMC11427839:

Target: T1, TIR1 fused to nLUC (UniProt Q570C0)
T1 sequence: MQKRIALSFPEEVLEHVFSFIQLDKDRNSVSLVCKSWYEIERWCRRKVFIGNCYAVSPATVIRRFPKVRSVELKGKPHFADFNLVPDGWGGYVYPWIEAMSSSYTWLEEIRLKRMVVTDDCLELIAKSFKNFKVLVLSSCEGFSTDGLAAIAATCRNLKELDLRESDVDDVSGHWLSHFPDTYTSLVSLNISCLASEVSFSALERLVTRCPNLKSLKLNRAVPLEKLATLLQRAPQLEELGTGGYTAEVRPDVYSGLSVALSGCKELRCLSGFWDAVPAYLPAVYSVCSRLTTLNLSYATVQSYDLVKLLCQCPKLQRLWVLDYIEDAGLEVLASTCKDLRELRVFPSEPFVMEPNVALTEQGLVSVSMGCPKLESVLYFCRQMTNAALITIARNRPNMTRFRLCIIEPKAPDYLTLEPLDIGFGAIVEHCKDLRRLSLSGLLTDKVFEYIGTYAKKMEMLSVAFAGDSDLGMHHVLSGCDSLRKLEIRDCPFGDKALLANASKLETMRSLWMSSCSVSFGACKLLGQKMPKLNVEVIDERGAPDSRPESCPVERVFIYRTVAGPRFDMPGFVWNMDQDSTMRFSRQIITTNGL
Assay: split reporter; split-luciferase complementation in tobacco; IAA13-cLUC (JW771) and TIR1-nLUC (JW772) vectors transferred together; imaged with NightSHADE EVO LB 985N after 60 h of growth in darkness

BnaA03.IAA13 (wild type, from ZS11) fused to cLUC (Brassica napus (rapeseed))
binding: binds

BnaA03.iaa13 (mutated protein of the EMS mutant T16: G79E, E160K) fused to cLUC (Brassica napus (rapeseed))
binding: no binding

Results are given in words; binding and its absence hold for the method and conditions named. Binding seen in cells or lysates may run through a third protein. Binding calls can cover weak binding; strength is not graded here. Tags and fused reporters may be left off the sequences shown.
